Reference: PubChem BioAssay AID504834 (National Center for Advancing Translational Sciences (NCATS), 2011)
Hit rate of the full screen: of about 320,000 compounds, about 22,000 (6.9%) were called active. Inconclusive results, whose numbers are uncertain, are shown with a selection of clear calls. Calls follow the shape of the dose curve; as a rule, active = well fitted inhibition curve with a large enough effect; inconclusive = small, poorly fitted or top-dose-only effect, or another doubt; inactive = no such curve, though single readings can be large or run the other way. Where the call is inconclusive, the potency comes from a doubtful curve fit.

Assay: Primary qHTS for delayed death inhibitors of the malarial parasite plastid, 96 hour incubation
Conditions: P. falciparum luciferase reporter growth; series mostly up to 28.7 µM
How it was run: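 Parasite growth measured via integrated firefly luciferase reporter in P. falciparum. Infected erythrocytes at 2% hematocrit, 0.05% parasitemia final were treated 96 hours at 37 C under 5% CO2, and luminescence was read.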
Potency is read from the fitted curve at half-maximal effect.

| SMILES | Potency |
| --- | --- |
| O=C(Nc1cccnc1)c1cnn2cccnc12 | inconclusive: 18.5 µM [inhibitor, single point] |
| CC(=O)c1cccc(OCC(O)CN2CCN(C(=O)c3ccco3)CC2)c1 (configuration not stated) | inactive |
| COc1ccccc1CC(=O)Nc1ccc(S(=O)(=O)N2CC(C)CC(C)C2)cc1 (configuration not stated) | inconclusive: 18.5 µM [inhibitor, single point] |
| CC(=O)c1ccc(S(=O)(=O)NCCC(=O)OCC(=O)N(Cc2ccccc2)C(C)(C)C)cc1 | inactive |
| CC(C)NC(=O)CC1(C(=O)NCc2ccc(Cl)cc2)CCCC1 | inactive |
| O=C(CSc1ccccc1)Nc1ccc2c(c1)OCCO2 | active: 8.28 µM |
| O=C1/C(=C/c2ccc(Cl)cc2)NC(=S)N1Cc1cccnc1 | inconclusive: 18.5 µM [inhibitor, single point] |
| CC(=O)c1cc(Cl)ccc1OCC(=O)Nc1cccc(S(=O)(=O)N2CCCC2)c1 | active: 3.7 µM |
| CN(C)CCCN1C(=O)C2CCc3[nH]c4ccccc4c3C2C1=O (configuration not stated) | active: 2.94 µM |
| CCCn1c(O)c(/C=C2\C=NN=C2c2ccccc2)sc1=S | inconclusive: 10.4 µM [inhibitor, partial curve, poor fit] |
| Cc1cc(OCC(=O)Nc2ccncc2)cc(C)c1Br | inconclusive: 16.5 µM [inhibitor, single point] |
| O=C(COc1cccc2c1CCN(Cc1ccc(Cl)cc1)C2=O)N1CCOCC1 | inconclusive: 3.7 µM [inhibitor, full curve, poor fit] |
| COc1cccc(Nc2nnc(Cc3cccnc3)c3ccccc23)c1 | inconclusive: 0.465 µM [inhibitor, full curve, poor fit] |
| CC1Cc2ccccc2N1CC(=O)NCc1ccccc1Cl (configuration not stated) | inactive |
| COC(=O)C(C)NC(=O)c1ccc(C(C)(C)C)cc1 (configuration not stated) | inactive |
| O=C1c2ccccc2C(=O)c2c1ccc1c(=O)n(-c3ccccc3)[nH]c21 | inactive |
| Cc1ccc(C)c(OCC(=O)Nc2ccc(S(=O)(=O)Nc3ncccn3)cc2)c1 | inactive |
| COc1ccc(CCN(C)C(=O)c2cc(-c3ccccc3)nc3ccccc23)cc1OC | active: 7.38 µM |
| Cc1cc(C(=O)CSc2ncccn2)c(C)n1-c1cccc(F)c1 | inactive |
| COc1ccc(CN/C=C2\CCCCC2=O)cc1 | inconclusive: 13.1 µM [inhibitor, partial curve] |
| CCOc1ccccc1NC(=O)CSc1nc(=O)n(Cc2ccccn2)c2c1CCC2 | inconclusive: 13.1 µM [inhibitor, partial curve] |
| CCC[C@@H]1C[C@@H](C(=O)N[C@H]([C@@H](C)O)[C@H]2O[C@H](SC)[C@H](O)[C@@H](O)C2O)N(C)C1 (some centres not stated) | active: 0.131 µM |
| Clc1ccc(C2=C3CCCCn4c(-c5ccccc5)c[n+](c43)C2)cc1 | inconclusive: 4.65 µM [inhibitor, partial curve] |
| CCCCCN(C(=O)CCC(=O)OC(C)C(=O)c1ccc(Cl)cc1)c1c(N)n(CCCC)c(=O)[nH]c1=O (configuration not stated) | inactive |

| SMILES | Potency |
| --- | --- |
| COc1cccc2c3c(c(C)nc12)CCN3c1ccccc1 | inconclusive: 18.5 µM [inhibitor, single point] |
| Cc1ccc(NC(=O)CN(C)CC(=O)Nc2cccc(F)c2)cc1S(=O)(=O)N1CCCCCC1 | inconclusive: 11.7 µM [inhibitor, single point] |
| COc1ccc(CC(=O)NC(C)c2nnc(SCC(=O)Nc3cc(C)ccc3OC)n2C)cc1 (configuration not stated) | inactive |
| O=C(CCCNS(=O)(=O)c1cccc2nsnc12)NC1CCCCC1 | inconclusive: 4.15 µM [inhibitor, partial curve, poor fit] |
| CC(=O)O/N=C1\C(=O)N(Cc2ccc(C)cc2)c2ccccc21 | inconclusive: 13.1 µM [inhibitor, single point] |
| O=C(NCc1ccccc1)c1ccccc1Br | inactive |
| O=S(=O)(NCc1ccccc1)c1cnc[nH]1 | inconclusive: 10.4 µM [inhibitor, single point] |
| CCOCCn1c(N2CCN(c3ccccc3)CC2)nc2c1c(=O)[nH]c(=O)n2C | inconclusive: 9.28 µM [inhibitor, partial curve] |
| COc1cccc(CNc2ccc3[nH]c(=O)[nH]c3c2)c1OCc1ccc(F)cc1 | inconclusive: 8.28 µM [inhibitor, single point] |
| Cc1cc(C)n2nc(SCc3nnc(SCCCCl)o3)nc2n1 | inconclusive: 1.17 µM [inhibitor, full curve, poor fit] |
| Cc1ccc(NC2CCCN(C(=O)c3cc4ncccn4n3)C2)cc1C (configuration not stated) | inconclusive: 10.4 µM [inhibitor, single point] |
| CCCCc1nnc(NC(=O)Cc2ccc(OC)c(S(=O)(=O)N3CCOCC3)c2)s1 | inconclusive: 5.22 µM [inhibitor, partial curve] |
| CCCNC(=O)N1CCC(c2nc3ccccc3s2)CC1 | inconclusive: 18.5 µM [inhibitor, single point] |
| O=C(CSc1nnc(-c2cccnc2)n1CCc1ccccc1)N1CCCCC1 | inconclusive: 18.5 µM [inhibitor, single point] |
| Cc1ccc(NC(=O)c2ccc(NS(=O)(=O)c3c(C)noc3C)cc2)cc1C | inconclusive: 13.1 µM [inhibitor, single point] |
| COCC(C)n1c(C)cc(C(=O)CSc2nc(C)c(C)c(C)n2)c1C (configuration not stated) | inconclusive: 18.5 µM [inhibitor, single point] |
| CCOc1ccc(NC(=O)c2ccc(-c3csc(C)n3)cc2)cc1 | inactive |
| COc1ccc(NC(=O)CSC(C)c2nc3ccccc3c(=O)[nH]2)cc1 (configuration not stated) | inactive |
| NS(=O)(=O)c1ccc(NCCCn2ccnc2)c([N+](=O)[O-])c1 | inconclusive: 8.28 µM [inhibitor, partial curve, poor fit] |
| CC(=O)[C@H]1CC[C@H]2[C@@H]3CCC4=CC(=O)CC[C@]4(C)[C@H]3CC[C@]12C | active: 10.4 µM |
| Cc1ccc(/C=N/NC(=O)c2ccc(Br)o2)s1 | inactive |
| Cc1csc2nc(COC(=O)c3cccc(N(C)C)c3)cc(=O)n12 | inactive |
| CC(=O)c1ccc(NC(=O)C2CCCN2S(=O)(=O)c2ccc(F)cc2)cc1 (configuration not stated) | inconclusive: 11.7 µM [inhibitor, partial curve, poor fit] |

2 neighbouring entries already listed:

| SMILES | Potency |
| --- | --- |
| COc1ccc(CCN(C)C(=O)c2cc(-c3ccccc3)nc3ccccc23)cc1OC | active: 7.38 µM |
| Cc1cc(C(=O)CSc2ncccn2)c(C)n1-c1cccc(F)c1 | inactive |
